# Values of other authors in article PMC6814258 (Pharmaceutical research, 2019).
# Tested on: KV7.1
# Conditions: previously shown to inhibit KV7.1; cited from earlier work
smiles,measurement,value
CC(C)OC(=O)C(C)(C)Oc1ccc(C(=O)c2ccc(Cl)cc2)cc1 [Fenofibrate],IC50,1000 nM
